# Reference: publication doi:10.1101/2025.04.26.650725
# Protein sequences, listed by entry. Tags and fused reporters are not part of them.
# UniProt O43149: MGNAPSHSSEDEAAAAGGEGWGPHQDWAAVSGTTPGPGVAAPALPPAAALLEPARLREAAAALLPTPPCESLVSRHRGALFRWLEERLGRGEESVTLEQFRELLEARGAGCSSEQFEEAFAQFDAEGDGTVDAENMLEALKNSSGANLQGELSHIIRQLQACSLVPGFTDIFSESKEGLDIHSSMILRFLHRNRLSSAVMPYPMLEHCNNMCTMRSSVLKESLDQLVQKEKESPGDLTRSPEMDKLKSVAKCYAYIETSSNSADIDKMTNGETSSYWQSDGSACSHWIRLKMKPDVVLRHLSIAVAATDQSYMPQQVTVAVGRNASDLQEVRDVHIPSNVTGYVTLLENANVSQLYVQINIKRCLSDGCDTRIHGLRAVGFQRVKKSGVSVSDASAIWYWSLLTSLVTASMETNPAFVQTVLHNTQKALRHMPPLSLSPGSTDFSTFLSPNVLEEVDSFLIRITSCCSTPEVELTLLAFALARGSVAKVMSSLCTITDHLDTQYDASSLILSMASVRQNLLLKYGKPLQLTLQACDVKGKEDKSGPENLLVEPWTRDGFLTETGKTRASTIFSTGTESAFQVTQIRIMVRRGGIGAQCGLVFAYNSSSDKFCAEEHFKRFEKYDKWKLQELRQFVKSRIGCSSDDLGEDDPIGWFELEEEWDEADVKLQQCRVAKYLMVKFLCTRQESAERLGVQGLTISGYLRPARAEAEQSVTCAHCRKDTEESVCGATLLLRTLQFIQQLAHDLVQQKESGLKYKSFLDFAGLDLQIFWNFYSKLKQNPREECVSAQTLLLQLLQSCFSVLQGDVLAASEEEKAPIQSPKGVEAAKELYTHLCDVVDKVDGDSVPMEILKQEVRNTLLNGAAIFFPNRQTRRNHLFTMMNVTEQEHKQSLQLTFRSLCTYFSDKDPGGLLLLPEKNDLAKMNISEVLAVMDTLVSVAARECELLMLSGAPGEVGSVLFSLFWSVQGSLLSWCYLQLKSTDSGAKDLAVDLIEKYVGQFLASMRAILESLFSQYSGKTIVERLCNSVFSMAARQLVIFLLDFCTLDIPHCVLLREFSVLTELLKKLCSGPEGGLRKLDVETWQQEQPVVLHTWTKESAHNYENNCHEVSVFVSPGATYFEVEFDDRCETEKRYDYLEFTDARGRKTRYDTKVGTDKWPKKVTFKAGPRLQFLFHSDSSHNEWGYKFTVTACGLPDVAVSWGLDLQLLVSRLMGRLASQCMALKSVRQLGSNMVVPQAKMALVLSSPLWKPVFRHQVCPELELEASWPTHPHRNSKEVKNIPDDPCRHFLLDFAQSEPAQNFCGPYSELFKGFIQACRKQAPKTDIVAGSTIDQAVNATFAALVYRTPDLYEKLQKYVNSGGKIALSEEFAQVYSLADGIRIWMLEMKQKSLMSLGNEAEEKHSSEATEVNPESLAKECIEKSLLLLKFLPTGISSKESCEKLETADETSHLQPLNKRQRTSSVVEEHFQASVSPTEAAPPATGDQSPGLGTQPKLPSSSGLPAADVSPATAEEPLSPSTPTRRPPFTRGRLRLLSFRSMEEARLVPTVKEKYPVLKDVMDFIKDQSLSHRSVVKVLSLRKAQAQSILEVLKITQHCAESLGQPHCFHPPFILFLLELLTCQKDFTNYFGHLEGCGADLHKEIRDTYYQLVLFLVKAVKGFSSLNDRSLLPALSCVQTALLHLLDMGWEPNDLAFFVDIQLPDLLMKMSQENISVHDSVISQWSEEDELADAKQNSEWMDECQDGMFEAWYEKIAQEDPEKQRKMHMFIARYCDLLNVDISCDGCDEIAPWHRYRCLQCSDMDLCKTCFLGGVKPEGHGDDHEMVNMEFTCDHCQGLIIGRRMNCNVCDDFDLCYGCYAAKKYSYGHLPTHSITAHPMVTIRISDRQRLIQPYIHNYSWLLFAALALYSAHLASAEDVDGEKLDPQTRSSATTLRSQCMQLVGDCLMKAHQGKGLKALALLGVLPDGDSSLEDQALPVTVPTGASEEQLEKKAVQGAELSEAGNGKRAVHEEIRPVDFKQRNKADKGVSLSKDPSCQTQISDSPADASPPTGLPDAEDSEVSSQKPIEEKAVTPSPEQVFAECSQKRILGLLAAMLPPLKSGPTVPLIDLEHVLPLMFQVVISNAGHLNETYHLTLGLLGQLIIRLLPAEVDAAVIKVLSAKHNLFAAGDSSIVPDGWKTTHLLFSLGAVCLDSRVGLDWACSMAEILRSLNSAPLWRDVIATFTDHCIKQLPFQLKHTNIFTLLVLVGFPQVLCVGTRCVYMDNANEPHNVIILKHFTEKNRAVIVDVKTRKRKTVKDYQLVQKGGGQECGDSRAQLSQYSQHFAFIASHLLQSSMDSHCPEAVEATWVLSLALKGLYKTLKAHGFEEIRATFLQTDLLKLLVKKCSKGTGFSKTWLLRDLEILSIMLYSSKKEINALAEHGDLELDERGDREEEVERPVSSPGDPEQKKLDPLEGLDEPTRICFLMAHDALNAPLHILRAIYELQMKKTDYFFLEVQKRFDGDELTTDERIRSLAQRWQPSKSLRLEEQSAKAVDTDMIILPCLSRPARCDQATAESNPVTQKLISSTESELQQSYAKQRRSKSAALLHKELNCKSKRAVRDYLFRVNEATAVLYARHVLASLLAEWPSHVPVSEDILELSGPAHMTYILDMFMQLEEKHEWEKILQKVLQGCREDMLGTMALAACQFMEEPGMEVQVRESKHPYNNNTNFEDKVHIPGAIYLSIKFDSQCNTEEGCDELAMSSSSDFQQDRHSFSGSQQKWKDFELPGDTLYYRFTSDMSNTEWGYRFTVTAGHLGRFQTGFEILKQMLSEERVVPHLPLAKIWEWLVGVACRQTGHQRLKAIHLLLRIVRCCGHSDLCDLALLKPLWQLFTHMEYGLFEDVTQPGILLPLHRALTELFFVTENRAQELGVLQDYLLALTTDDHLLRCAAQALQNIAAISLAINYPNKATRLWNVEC
# UniProt Q8TD26: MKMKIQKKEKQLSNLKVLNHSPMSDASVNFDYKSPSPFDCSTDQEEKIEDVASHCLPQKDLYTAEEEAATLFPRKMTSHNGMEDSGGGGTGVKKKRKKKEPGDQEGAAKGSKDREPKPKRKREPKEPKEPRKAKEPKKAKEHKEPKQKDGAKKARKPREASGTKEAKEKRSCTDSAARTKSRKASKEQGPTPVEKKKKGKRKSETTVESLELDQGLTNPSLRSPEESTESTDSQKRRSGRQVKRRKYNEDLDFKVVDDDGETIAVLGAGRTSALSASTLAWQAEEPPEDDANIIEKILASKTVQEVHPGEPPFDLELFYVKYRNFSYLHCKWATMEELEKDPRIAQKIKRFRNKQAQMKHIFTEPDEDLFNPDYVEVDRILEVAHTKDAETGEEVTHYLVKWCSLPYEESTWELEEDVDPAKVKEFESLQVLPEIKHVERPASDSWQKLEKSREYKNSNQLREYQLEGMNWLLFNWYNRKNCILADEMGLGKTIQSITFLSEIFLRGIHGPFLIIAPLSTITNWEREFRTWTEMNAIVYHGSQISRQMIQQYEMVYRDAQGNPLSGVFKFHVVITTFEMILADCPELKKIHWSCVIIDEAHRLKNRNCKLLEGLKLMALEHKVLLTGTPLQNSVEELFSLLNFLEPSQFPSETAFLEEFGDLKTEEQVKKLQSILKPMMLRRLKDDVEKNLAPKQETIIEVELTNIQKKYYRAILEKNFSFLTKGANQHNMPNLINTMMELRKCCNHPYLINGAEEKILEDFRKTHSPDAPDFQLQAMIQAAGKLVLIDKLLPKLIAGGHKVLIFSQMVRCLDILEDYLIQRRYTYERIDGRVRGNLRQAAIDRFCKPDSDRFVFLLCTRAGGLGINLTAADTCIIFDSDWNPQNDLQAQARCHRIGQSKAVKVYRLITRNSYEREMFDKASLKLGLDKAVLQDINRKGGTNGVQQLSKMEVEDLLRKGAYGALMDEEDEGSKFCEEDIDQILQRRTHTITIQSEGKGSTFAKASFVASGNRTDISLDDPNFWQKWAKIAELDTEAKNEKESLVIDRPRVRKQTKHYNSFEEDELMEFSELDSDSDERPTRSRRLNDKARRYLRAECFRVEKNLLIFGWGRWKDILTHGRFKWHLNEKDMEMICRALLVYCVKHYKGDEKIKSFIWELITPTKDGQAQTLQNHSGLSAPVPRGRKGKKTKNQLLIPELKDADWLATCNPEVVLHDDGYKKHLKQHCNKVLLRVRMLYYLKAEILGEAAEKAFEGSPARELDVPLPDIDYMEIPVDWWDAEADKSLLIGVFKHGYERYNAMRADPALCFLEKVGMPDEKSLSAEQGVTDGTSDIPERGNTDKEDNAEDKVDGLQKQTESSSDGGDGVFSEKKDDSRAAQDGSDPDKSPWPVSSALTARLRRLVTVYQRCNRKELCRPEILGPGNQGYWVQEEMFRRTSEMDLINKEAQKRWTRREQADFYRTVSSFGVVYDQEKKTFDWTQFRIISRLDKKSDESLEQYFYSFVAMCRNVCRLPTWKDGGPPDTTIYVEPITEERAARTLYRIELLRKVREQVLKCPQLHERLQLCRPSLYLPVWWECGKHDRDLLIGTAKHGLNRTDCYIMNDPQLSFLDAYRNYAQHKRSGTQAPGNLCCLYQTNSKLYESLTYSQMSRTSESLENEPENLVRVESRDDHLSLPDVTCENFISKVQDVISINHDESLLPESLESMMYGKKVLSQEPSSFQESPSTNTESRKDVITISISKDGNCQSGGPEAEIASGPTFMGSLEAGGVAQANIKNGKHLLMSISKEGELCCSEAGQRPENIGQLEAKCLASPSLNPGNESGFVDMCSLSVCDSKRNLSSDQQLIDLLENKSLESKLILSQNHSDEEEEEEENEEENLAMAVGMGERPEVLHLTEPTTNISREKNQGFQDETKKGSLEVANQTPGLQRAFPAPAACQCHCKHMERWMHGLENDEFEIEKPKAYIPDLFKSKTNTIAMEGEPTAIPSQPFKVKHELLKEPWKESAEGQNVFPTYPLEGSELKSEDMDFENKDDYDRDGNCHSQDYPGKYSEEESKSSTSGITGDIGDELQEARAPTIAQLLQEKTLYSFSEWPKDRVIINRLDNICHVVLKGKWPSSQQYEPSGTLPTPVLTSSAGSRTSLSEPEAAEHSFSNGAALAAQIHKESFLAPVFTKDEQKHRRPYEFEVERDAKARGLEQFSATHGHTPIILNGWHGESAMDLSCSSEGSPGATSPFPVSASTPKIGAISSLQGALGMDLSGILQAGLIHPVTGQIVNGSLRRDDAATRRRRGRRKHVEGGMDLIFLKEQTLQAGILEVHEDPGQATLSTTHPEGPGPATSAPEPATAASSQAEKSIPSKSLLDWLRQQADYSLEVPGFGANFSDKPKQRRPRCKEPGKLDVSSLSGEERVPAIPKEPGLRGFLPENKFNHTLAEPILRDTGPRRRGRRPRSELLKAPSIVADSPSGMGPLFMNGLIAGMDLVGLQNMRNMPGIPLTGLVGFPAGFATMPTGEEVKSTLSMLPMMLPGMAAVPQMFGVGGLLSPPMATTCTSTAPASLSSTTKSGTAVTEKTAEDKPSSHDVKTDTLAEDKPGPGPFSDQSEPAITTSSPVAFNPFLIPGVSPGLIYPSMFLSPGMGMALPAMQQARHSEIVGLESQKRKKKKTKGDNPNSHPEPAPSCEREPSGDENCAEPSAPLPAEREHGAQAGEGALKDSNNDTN
# No constants are given. Whether binding was seen depends on the method and setting. In cells and extracts the contact can be indirect. Some results given as binding are weak or reduced against the parent protein; the word gives no strength.
# Target: Zinc Finger ZZ-Type And EF-Hand Domain Containing 1 (ZZEF1) (human (endogenous in MDA-MB-231)) (UniProt O43149)
# Assay: co-IP
substance,measurement,value
Chromodomain Helicase DNA Binding Protein 6 (CHD6) (from UniProt Q8TD26 1-2715),binding,binds
